# Screening data

Source: PubChem BioAssay AID504749 (NCATS, 2011).

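Malaria parasite (P. falciparum) lines kept in red blood cells; parasite DNA is measured by SYBR Green fluorescence after lysis, 72 h after compound addition.
Each compound was titrated across a series from about 0.000037 to 29 µM.
The number is the fitted AC50, the concentration giving a half-maximal change in signal; a lower value means higher potency, whether the curve shows a decrease or an increase.
Calls follow the curve class and fit quality: every row here is inconclusive, covering signal-raising curves and weak, poorly fitted, partial or highest-dose-only inhibition curves.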

Values are in nM.
Every entry below has the call inconclusive.
Only part of the assay is shown, chiefly results filed as inconclusive.
Potencies fitted to partial, single-point or poorly fitting curves are rough.
Some entries filed as inconclusive have a full curve.

With O=C1CC2(CCCC2)CC(=O)N1CCCCN1CCN(c2ncccn2)CC1 [GB4] the assay gave fitted potency 15101 nM (inhibitor, single point).
With O=C1CC2(CCCC2)CC(=O)N1CCCCN1CCN(c2ncccn2)CC1 [7G8] the assay gave fitted potency 14125 nM (inhibitor, partial curve).
With O=C1CC2(CCCC2)CC(=O)N1CCCCN1CCN(c2ncccn2)CC1 [CP237] the assay gave fitted potency 6310 nM (inhibitor, partial curve).
With O=C1CC2(CCCC2)CC(=O)N1CCCCN1CCN(c2ncccn2)CC1 [PC26] the assay gave fitted potency 3793 nM (inhibitor, full curve).
With COc1cc2c(Nc3ccc(Br)cc3F)ncnc2cc1OCC1CCN(C)CC1 [CP192] the assay gave fitted potency 13459 nM (inhibitor, partial curve, poor fit).
With COc1cc2c(Nc3ccc(Br)cc3F)ncnc2cc1OCC1CCN(C)CC1 [CP297] the assay gave fitted potency 15101 nM (inhibitor, single point).
With COc1cc2c(Nc3ccc(Br)cc3F)ncnc2cc1OCC1CCN(C)CC1 [CP194] the assay gave fitted potency 4776 nM (inhibitor, partial curve, poor fit).
With COc1cc2c(Nc3ccc(Br)cc3F)ncnc2cc1OCC1CCN(C)CC1 [DIV30] the assay gave fitted potency 379.3 nM (inhibitor, full curve, poor fit).
With COc1cc2c(Nc3ccc(Br)cc3F)ncnc2cc1OCC1CCN(C)CC1 [CP329] the assay gave fitted potency 19011 nM (inhibitor, single point).
With COc1cc2c(Nc3ccc(Br)cc3F)ncnc2cc1OCC1CCN(C)CC1 [JCK] the assay gave fitted potency 11220 nM (inhibitor, single point).
With COc1cc2c(Nc3ccc(Br)cc3F)ncnc2cc1OCC1CCN(C)CC1 [CP201] the assay gave fitted potency 2686 nM (inhibitor, partial curve, poor fit).
With COc1cc2c(Nc3ccc(Br)cc3F)ncnc2cc1OCC1CCN(C)CC1 [CP203] the assay gave fitted potency 7569 nM (inhibitor, partial curve, poor fit).
With COc1cc2c(Nc3ccc(Br)cc3F)ncnc2cc1OCC1CCN(C)CC1 [CP215] the assay gave fitted potency 4776 nM (inhibitor, partial curve).
With COc1cc2c(Nc3ccc(Br)cc3F)ncnc2cc1OCC1CCN(C)CC1 [PC49] the assay gave fitted potency 14125 nM (inhibitor, single point).
With COc1cc2c(Nc3ccc(Br)cc3F)ncnc2cc1OCC1CCN(C)CC1 [PC26] the assay gave fitted potency 5358 nM (inhibitor, partial curve, poor fit).
With COc1cc2c(Nc3ccc(Br)cc3F)ncnc2cc1OCC1CCN(C)CC1 [CP262] the assay gave fitted potency 19011 nM (inhibitor, single point).
With COC(=O)C1=C(C)NC(C)=C(C(=O)OCC(C)C)C1c1ccccc1[N+](=O)[O-] (stereo not given) [CP268] the assay gave fitted potency 19011 nM (inhibitor, single point).
With COC(=O)C1=C(C)NC(C)=C(C(=O)OCC(C)C)C1c1ccccc1[N+](=O)[O-] (stereo not given) [CP329] the assay gave fitted potency 13459 nM (inhibitor, single point).

Repeated from the top, 2 entries:

O=C1CC2(CCCC2)CC(=O)N1CCCCN1CCN(c2ncccn2)CC1 [GB4] gave fitted potency 15101 nM (inhibitor, single point).
O=C1CC2(CCCC2)CC(=O)N1CCCCN1CCN(c2ncccn2)CC1 [7G8] gave fitted potency 14125 nM (inhibitor, partial curve).